The source of these data is PubChem BioAssay AID330 (DTP/NCI, 2004).

The list is a part of this screen's results and no random one: it gathers tests that were run many times, whatever their T/C, doses with no T/C, and many T/C values between a quarter and a half above the control. Further doses and runs are listed elsewhere. T/C gives the treated animals as a percentage of the vehicle group. Some doses have a count of surviving animals in place of a T/C: the source holds a T/C of zero for them, seemingly a mark for toxic or unscored doses. Some survivor counts are full or nearly so, which does not show that the dose was tolerated: survival well below the control is almost never listed, so the zero probably covers shortened survival too. Counts of survivors are from the toxicity check (mostly the fifth day) where no day follows; animals may have died later. Schedules are NCI's codes, read here as Q, the interval in days (D) or hours (H), X, the number of doses. Some doses were run more than once; their values stand side by side, smallest first. For survival time, the PubChem record calls one and a half times the control and up active, and a quarter to a half above the control has no call in these data; cut-offs in other NCI protocols can differ. Some T/C values carry the count of animals alive at the toxicity check (mostly the fifth day); where none is given, no animal had died by that day.

In the test the test system is P388 leukemia ip, CD2F1 mice, survival T/C. Briefly: NCI In Vivo Anticancer Drug Screen. Data for tumor model P388 Leukemia (intraperitoneal) in CD2F1 (CDF1) mice. The conditions noted are these: T/C endpoint: median survival time, higher T/C = longer survival.
[1] abbreviates: dose: 100.0 mg/kg/injection, schedule: Q01DX009 (ip), vehicle: saline.
Setting [2] is: dose: 400.0 mg/kg/injection, schedule: Q04DX003 (ip), vehicle: saline.
The mark [3] stands for this setting: dose: 400.0 mg/kg/injection, schedule: Q04DX002 (ip), vehicle: saline with Tween-80.
The mark [4] stands for this setting: dose: 10.0 mg/kg/injection, schedule: Q01DX009 (ip), vehicle: other.

With `COc1ccc(CC2c3cc4c(cc3CCN2C)OCO4)c(/C=C\c2ccccc2)c1OC` (configuration not stated), the survivor count is, setting by setting: (dose: 50.0 mg/kg/injection, schedule: Q01DX001 (ip), vehicle: saline + alcohol) 6 of 6; (dose: 100.0 mg/kg/injection, schedule: Q01DX001 (ip), vehicle: saline + alcohol) 6 of 6.
`O=c1[nH]c2cc(Cl)ccc2nc1/C=C(\O)c1cccc(O)c1`: the survivor count is recorded as 6 of 6 (dose: 120.0 mg/kg/injection, schedule: Q01DX005 (ip), vehicle: Klucel + Tween-80) and 6 of 6 (dose: 240.0 mg/kg/injection, schedule: Q01DX005 (ip), vehicle: Klucel + Tween-80).
On to `Nc1cccc(N)n1`, for which the survivor count by setting is: (dose: 25.0 mg/kg/injection, schedule: Q01DX009 (ip), vehicle: saline) 6 of 6; (dose: 50.0 mg/kg/injection, schedule: Q01DX009 (ip), vehicle: saline) 0 of 6; under setting [1], 0 of 6; (dose: 200.0 mg/kg/injection, schedule: Q01DX009 (ip), vehicle: saline) 0 of 6.
For the compound `O=C(Nc1ccc(Cl)cc1)SC1=NCC(=O)N1c1ccccc1`, the survivor count (dose: 1.56 mg/kg/injection, schedule: Q01DX005 (ip), vehicle: saline with Tween-80) is listed as 5 of 5; the survivor count (dose: 12.5 mg/kg/injection, schedule: Q01DX005 (ip), vehicle: saline with Tween-80) is 6 of 6; the survivor count (dose: 50.0 mg/kg/injection, schedule: Q01DX005 (ip), vehicle: saline with Tween-80) was 6 of 6.
Take `C=C1C(=O)OC2C1C(OC(=O)/C(C)=C\C)CC1(CO1)C1C(O)C=C(C)C21O` (configuration not stated): the survivor count is recorded as 4 of 6 (dose: 100.0 mg/kg/injection, schedule: Q04DX003 (ip), vehicle: saline with Tween-80) and 0 of 6 (dose: 200.0 mg/kg/injection, schedule: Q04DX003 (ip), vehicle: saline with Tween-80).
Take `Cc1ccc(C(=O)C(CN(C)C)CN(C)C)cc1C`: the T/C is, setting by setting: (dose: 12.5 mg/kg/injection, schedule: Q01DX005 (ip), vehicle: saline) 128 and 132 % of control; (dose: 25.0 mg/kg/injection, schedule: Q01DX005 (ip), vehicle: saline) 125 % of control [5 of 6 alive]. In addition, the survivor count is, setting by setting: (dose: 50.0 mg/kg/injection, schedule: Q01DX005 (ip), vehicle: saline) 0 of 5; (dose: 100.0 mg/kg/injection, schedule: Q01DX005 (ip), vehicle: saline) 0 of 5; (dose: 200.0 mg/kg/injection, schedule: Q01DX005 (ip), vehicle: saline) 0 of 5.
For the compound `COc1cccc2c1C(=O)c1c(O)c3c(c(O)c1C2=O)C[C@@](O)(/C(C)=N/NC(N)=S)C[C@@H]3OC1CC(N)C(O)C(C)O1` (some centres not stated), where the note is “dose: 100.0 mg/kg/injection, schedule: Q04DX003 (ip), vehicle: water”, the T/C was 129 % of control.
Regarding `CCOC([O-])=N/C(=N/[n+]1ccc(C)cc1)c1ccccc1`, the survivor count under setting [2] was 2 of 6.
Turning to `O=NN(CCCl)C(=O)Oc1ccc(F)cc1`, the T/C by setting is: (dose: 12.5 mg/kg/injection, schedule: Q01DX001 (ip), vehicle: saline with Tween-80) 125 % of control; (dose: 25.0 mg/kg/injection, schedule: Q01DX001 (ip), vehicle: saline with Tween-80) 125 % of control.
As for `CC1=NN(c2ccc(S(=O)(=O)O)cc2)C(=O)C1N=Nc1ccc(-c2ccc(N=Nc3ccc(O)c(C(=O)O)c3)c(C)c2)cc1C` (configuration not stated), the T/C (dose: 50.0 mg/kg/injection, schedule: Q01DX009 (ip), vehicle: saline with Tween-80) was 89, 96, 105, 113 % of control. The survivor count is given as 6 of 6 (dose: 100.0 mg/kg/injection, schedule: Q01DX009 (ip), vehicle: saline with Tween-80) and 2 of 6 (dose: 200.0 mg/kg/injection, schedule: Q01DX009 (ip), vehicle: saline with Tween-80).
`COc1ccc2c3c1OC1C(=O)C=C[C@@]4(Br)[C@@H](C2)N(C)CC[C@]314` (some centres not stated): the survivor count was 0 of 6 (dose: 100.0 mg/kg/injection, schedule: Q04DX002 (ip), vehicle: saline with Tween-80); 0 of 6 (dose: 200.0 mg/kg/injection, schedule: Q04DX002 (ip), vehicle: saline with Tween-80); 0 of 6 under setting [3].
In the case of `O=C1NC(=S)NC(=O)C1=Cc1cccc2cc3ccccc3cc12`, for the setting “dose: 200.0 mg/kg/injection, schedule: Q01DX005 (ip), vehicle: Klucel (hydroxypropylcellulose) (HPC)”, the survivor count is reported as 6 of 6.
Turning to `c1ccc2c(NCCCCCCCNc3c4ccccc4nc4ccccc34)c3ccccc3nc2c1`, the T/C is, setting by setting: (dose: 0.63 mg/kg/injection, schedule: Q01DX009 (ip), vehicle: other) 131 % of control; (dose: 1.25 mg/kg/injection, schedule: Q01DX009 (ip), vehicle: other) 142, 144, 145 % of control [5 of 6 alive]; (dose: 2.5 mg/kg/injection, schedule: Q01DX009 (ip), vehicle: other) 140 and 147 % of control; (dose: 3.75 mg/kg/injection, schedule: Q01DX009 (ip), vehicle: other) 137 % of control; (dose: 7.5 mg/kg/injection, schedule: Q01DX009 (ip), vehicle: other) 147 % of control; under setting [4], 128 % of control. Besides, the survivor count runs as follows: under setting [4], 6 of 6; (dose: 15.0 mg/kg/injection, schedule: Q01DX009 (ip), vehicle: other) 3 of 6; (dose: 20.0 mg/kg/injection, schedule: Q01DX009 (ip), vehicle: other) 0 of 6, 2 of 6, 3 of 6.
Consider `CCC[CH2][Sn]([Cl])([Cl])[CH2]CCC`, for which the T/C reads like this: (dose: 3.0 mg/kg/injection, schedule: Q01DX009 (ip), vehicle: saline with Tween-80) 126 % of control [5 of 6 alive]; (dose: 25.0 mg/kg/injection, schedule: Q04DX003 (ip), vehicle: suspension in saline) 141 % of control [5 of 6 alive]; (dose: 200.0 mg/kg/injection, schedule: Q04DX003 (ip), vehicle: saline) 125 % of control. The survivor count was 0 of 6 (dose: 50.0 mg/kg/injection, schedule: Q04DX003 (ip), vehicle: suspension in saline); 0 of 6 (dose: 100.0 mg/kg/injection, schedule: Q04DX003 (ip), vehicle: suspension in saline); 0 of 6 (dose: 200.0 mg/kg/injection, schedule: Q04DX003 (ip), vehicle: suspension in saline); 4 of 6 under setting [2].
Consider `O=C1N=CC2(N=N2)C(=O)N1`, for which the T/C (dose: 1.87 mg/kg/injection, schedule: Q01DX005 (ip), vehicle: saline with Tween-80) was 149 % of control. In addition, the survivor count runs as follows: (dose: 30.0 mg/kg/injection, schedule: Q01DX005 (ip), vehicle: saline with Tween-80) 0 of 6; (dose: 60.0 mg/kg/injection, schedule: Q01DX005 (ip), vehicle: saline with Tween-80) 0 of 6; (dose: 120.0 mg/kg/injection, schedule: Q01DX005 (ip), vehicle: saline with Tween-80) 0 of 6; (dose: 240.0 mg/kg/injection, schedule: Q01DX005 (ip), vehicle: saline with Tween-80) 0 of 6.
On to `C1CN2CCN1CC2.[Cl][Pt]([Cl])[Cl]`, for which the survivor count under setting [3] is recorded as 0 of 6.
As to `COCN1C(=O)CN=C(c2ccccc2)c2cc(NO)ccc21`, the survivor count is, setting by setting: (dose: 100.0 mg/kg/injection, schedule: Q01DX009 (ip), vehicle: Klucel (hydroxypropylcellulose) (HPC)) 1 of 6; (dose: 200.0 mg/kg/injection, schedule: Q01DX009 (ip), vehicle: Klucel (hydroxypropylcellulose) (HPC)) 0 of 6.
Turning to `c1ccc(N[n+]2ccc3ccccc3c2)cc1`, the survivor count runs as follows: (dose: 50.0 mg/kg/injection, schedule: Q01DX009 (ip), vehicle: distilled water + alcohol) 0 of 6; (dose: 100.0 mg/kg/injection, schedule: Q01DX009 (ip), vehicle: distilled water + alcohol) 0 of 6; (dose: 200.0 mg/kg/injection, schedule: Q01DX009 (ip), vehicle: distilled water + alcohol) 0 of 6.
Regarding `Cc1ccc(N2C(=O)C(C)SC2=S)cc1Cl` (configuration not stated), the survivor count under setting [1] was 1 of 6.
